# Source: PubChem BioAssay AID977625 (Broad Institute, 2014)
# Inconclusive results, whose numbers are uncertain, are shown.
# Assay: growth inhibition of h34-humanized E. coli versus wild-type, dose response, h34 mutant GFP vs wild-type RFP, cherry-pick, OD600 (AID 977625)
# Settings: E. coli h34-humanized GFP strain growth, fluorescence, 24 h; at 50 µM (top of the series);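 active means red signal from normal-ribosome E. coli cut at least twice as much as green humanized-ribosome signal, growth cut under 30%; inconclusive means no clear call, values can overlap the other calls; inactive means the rest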
smiles,measurement,value
O=C(COC(=O)c1cccc(O)c1)Nc1ccc(Cl)cc1C(=O)c1ccccc1,"activity change, negative = inhibition",inconclusive: -12.8
